# Data reported in the supplement of paper PMC12889115.
# The list shows a part of the results. Values are raw readings; no control value is given beside them.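 First-pass screen: polymyxin B was added at a level that permeabilizes the Salmonella outer membrane while sparing the inner membrane. DMSO wells, with and without polymyxin B, defined maximum growth. Because plates differed from one another, each plate's data were ranked separately and the compounds with the lowest OD600 were carried forward as hits.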
# Tested on: Salmonella enterica serovar Typhimurium SL1344
# Test: bacterial growth OD600 after 18 h with compound and polymyxin B; higher = more bacterial growth (less inhibition)
# Settings: 50 µM, Mueller-Hinton broth
Compound,bacterial growth OD600 (polymyxin B 0.75 µg/mL),bacterial growth OD600 (polymyxin B 1 µg/mL)
O=C(C1CCC1)N1CCc2onc(-c3ccc(F)c(F)c3)c2C1,0.737,
COc1ccccc1OCC(=O)N1CCC(C2(C)NC(=O)N(Cc3ccc(F)cc3)C2=O)CC1 (stereo unspecified),0.929,
Cc1oc(-c2ccccc2NS(=O)(=O)Cc2ccccc2)nc1CNC(=O)CCn1cccn1,0.841,
CCC(CC)CN1CCC(N2CCC(C(=O)NCc3cccnc3)CC2)CC1,,1.26
O=C(NCC1CCCCO1)c1coc(COc2cccc3cccnc23)n1 (stereo unspecified),,0.968
COc1ccc(Cl)cc1C(=O)C1CCCN(Cc2cccn2-c2nccs2)C1 (stereo unspecified),,1.01
C[C@@H]1CN(Cc2nnnn2CC(=O)NC2CCN(Cc3ccccc3)CC2)C[C@H](C)O1,0.789,
CSCCC(=O)N1CCC(C2CCN(Cc3cccnc3)CC2)C1 (stereo unspecified),0.868,
O=S(=O)(c1ccccc1)N1CCc2[nH]nc(-c3ccccc3F)c2C1,0.514,
COc1ccc(-c2n[nH]cc2CN2CCC(n3nccc3NC(=O)C(C)(C)C)CC2)cc1,,0.915
O=C(c1ccsc1)N1CCc2[nH]nc(-c3ccc(F)c(F)c3)c2C1,0.006,
COC(=O)[C@@H](NC1CCN(c2ccc(NS(=O)(=O)N(C)C)cc2)CC1)c1ccccc1,0.852,
CC(C)N1CCC(CNC(=O)c2coc(COc3cccc(F)c3F)n2)CC1,,0.969
CCN(CC)C(=O)C1CCCN(Cc2ccc3c(c2)CN(Cc2cc(OC)cc(OC)c2)CCO3)C1 (stereo unspecified),0.848,
COCc1ccc(C(=O)NCc2nc(NCCCc3ccccc3)c3ccccc3n2)o1,0.719,
CCCS(=O)(=O)NCc1cccnc1N1CCN(c2ccccc2C)CC1,0.639,

Compound,bacterial growth OD600 (polymyxin B 0.75 µg/mL),bacterial growth OD600 (polymyxin B 1 µg/mL)
O=C(NCC1CCCCC1)C1CCC(=O)N(CCc2cccc(F)c2)C1 (stereo unspecified),,0.878
O=C(CCC1CCCN(Cc2cnc(N3CCOCC3)s2)C1)Nc1ccccc1F (stereo unspecified),,0.859
Cc1ccc(SC2CCN(C(=O)C3CCC(=O)N(C4CC4)C3)CC2)cc1 (stereo unspecified),,0.927
C#Cc1ccc(CN2CCC(Oc3cc(OC)ccc3C(=O)NC3CC3)CC2)cc1,,1.17
CC(C)c1nccn1Cc1cc(C(=O)N2CCCN(Cc3ccccn3)CC2)n[nH]1,,0.964
Cc1cccc(-c2cccc(NC(=O)C3CCCN(C(=O)c4ncoc4C)C3)c2)c1 (stereo unspecified),,0.486
O=C(c1coc(COc2ccccc2)n1)N1CCCCCC1,,0.856
CN1CCCN(c2ccc(-c3nc(COc4ccccc4)no3)cn2)CC1,,0.759
CCC(O)C1CCN(c2nc3nonc3nc2NC2CCCC2)CC1 (stereo unspecified),,0.886
COCCN(Cc1ncc[nH]1)CC1CCCN(C2Cc3ccccc3C2)C1 (stereo unspecified),0.868,
CC(C)(C)CN1CC(NC2Cc3ccccc3C2)CC1=O (stereo unspecified),,0.747
COc1cc(NC(=O)CCC2CCCN(C(=O)c3ocnc3C)C2)cc(OC)c1 (stereo unspecified),,1.05
COc1ccc(-c2nc(CN3CCN(c4ccc(C)cc4C)CC3)c(C)o2)cc1,,0.571
COc1ccc(-c2ccccc2NC(=O)C2CCCN2C(=O)NC(C)C)cc1 (stereo unspecified),,0.315
CSc1ncc(CN2CCC(C3CCN(Cc4cccnc4)CC3)C2)cn1 (stereo unspecified),0.646,

# Rewritten with bars between the fields: entries from further up.
Compound | bacterial growth OD600 (polymyxin B 0.75 µg/mL) | bacterial growth OD600 (polymyxin B 1 µg/mL)
COc1ccc(Cl)cc1C(=O)C1CCCN(Cc2cccn2-c2nccs2)C1 (stereo unspecified) |  | 1.01
COC(=O)[C@@H](NC1CCN(c2ccc(NS(=O)(=O)N(C)C)cc2)CC1)c1ccccc1 | 0.852 | 
COCc1ccc(C(=O)NCc2nc(NCCCc3ccccc3)c3ccccc3n2)o1 | 0.719 | 
CCCS(=O)(=O)NCc1cccnc1N1CCN(c2ccccc2C)CC1 | 0.639 | 
CC(C)c1nccn1Cc1cc(C(=O)N2CCCN(Cc3ccccn3)CC2)n[nH]1 |  | 0.964
CCC(O)C1CCN(c2nc3nonc3nc2NC2CCCC2)CC1 (stereo unspecified) |  | 0.886
COCCN(Cc1ncc[nH]1)CC1CCCN(C2Cc3ccccc3C2)C1 (stereo unspecified) | 0.868 | 
